Laboratory results as given in PubChem BioAssay AID248 (DTP/NCI, 2004).
The list shows only some results of the screen, not a fair sample: it covers a few groups of compounds. Not every dose and run of a compound is shown. T/C gives the treated animals as a percentage of the vehicle group. Some doses have a count of surviving animals in place of a T/C: the source files T/C as zero there, which appears to mark a toxic dose or a test without result, not a measured value. Some doses without a T/C left all or most animals alive at the check, yet need not have been tolerated: survival well below the control is almost never listed, so the zero probably covers shortened survival too. Counts of survivors are from the toxicity check (mostly the fifth day) where no day follows; animals may have died later. Schedule codes are those of the source, read here as Q, the interval in days (D) or hours (H), X, the number of doses. Where survival is the endpoint, this PubChem deposit counts one and a half times the control or more as active, and values a quarter to a half above the control carry no call in these data; other NCI protocols may use other cut-offs. Some entries were tested several times; the results are listed from low to high. Some schedules carry Z or #; the key to these is not given. Additions like (4×) count equal records among those shown. Some entries show no survivor count and are marked so; the dose need not have been tolerated. Some T/C values carry the count of animals alive at the toxicity check (mostly the fifth day); where neither a count nor a note follows, no animal had died by that day.

Test system: L1210 leukemia ip in BDF1 mice, survival T/C
Experiment: NCI In Vivo Anticancer Drug Screen. Data for tumor model L1210 Leukemia (intraperitoneal) in B6D2F1 (BDF1) mice
Details: T/C endpoint: mean survival time, higher T/C = longer survival
[1] = dose: 25.0 mg/kg/injection, schedule: Q04DX002 (ip), vehicle: saline with Tween-80
[2] = dose: 50.0 mg/kg/injection, schedule: Q04DX002 (ip), vehicle: saline with Tween-80
[3] = dose: 100.0 mg/kg/injection, schedule: Q04DX002 (ip), vehicle: saline with Tween-80
[4] = dose: 100.0 mg/kg/injection, schedule: Q01DX009 (ip), vehicle: Klucel (hydroxypropylcellulose) (HPC)

Cc1ccc2c(c1)C[P+](c1ccccc1)(c1ccccc1)CCC2C.F[P-](F)(F)(F)(F)F (centres undefined)
T/C [1]: 94 % of control | T/C [2]: 88 % of control | T/C [3]: 102 % of control

CN(C)CCCOC(=O)C(O)(Cc1ccccc1)c1cccc2c1OC(C)(C)C2 (centres undefined)
T/C (dose: 25.0 mg/kg/injection, schedule: Q04DX003 (ip), vehicle: Klucel (hydroxypropylcellulose) (HPC)): 97 % of control | T/C (dose: 50.0 mg/kg/injection, schedule: Q01DX009 (ip), vehicle: Klucel (hydroxypropylcellulose) (HPC)): 103 % of control | T/C (dose: 50.0 mg/kg/injection, schedule: Q04DX003 (ip), vehicle: Klucel (hydroxypropylcellulose) (HPC)): 103 % of control | T/C [4]: 103 % of control | T/C (dose: 100.0 mg/kg/injection, schedule: Q04DX003 (ip), vehicle: Klucel (hydroxypropylcellulose) (HPC), evaluated on day 20): 95 % of control | T/C (dose: 100.0 mg/kg/injection, schedule: Q04DX003 (ip), vehicle: Klucel (hydroxypropylcellulose) (HPC), evaluated on day 30): 95 % of control

O=[N+]([O-])c1cc([N+](=O)[O-])c(CCN2CCCCC2)c([N+](=O)[O-])c1
T/C (dose: 25.0 mg/kg/injection, schedule: Q04DX003 (ip), vehicle: other): 95 % of control [survivor count not shown] | T/C (dose: 50.0 mg/kg/injection, schedule: Q04DX003 (ip), vehicle: other): 94 % of control [survivor count not shown] | T/C (dose: 100.0 mg/kg/injection, schedule: Q01DX001 (ip), vehicle: other): 109 % of control [survivor count not shown] | T/C (dose: 100.0 mg/kg/injection, schedule: Q04DX003 (ip), vehicle: other): 95 % of control [survivor count not shown]

ClCCNCCCCCNCCCl
T/C (dose: 40.0 mg/kg/injection, schedule: Q01DX Z (ip), vehicle: saline): 112 % of control (2×) | T/C (dose: 50.0 mg/kg/injection, schedule: Q01DX001 (ip), vehicle: saline): 95 % of control | T/C (dose: 65.0 mg/kg/injection, schedule: Q01DX Z (ip), vehicle: saline): 118 and 120 % of control | T/C (dose: 100.0 mg/kg/injection, schedule: Q01DX001 (ip), vehicle: saline): 120 % of control | T/C (dose: 100.0 mg/kg/injection, schedule: Q01DX Z (ip), vehicle: saline): 136, 142, 143 % of control | T/C (dose: 100.0 mg/kg/injection, schedule: Q04DX003 (ip), vehicle: saline): 124 % of control | T/C (dose: 132.0 mg/kg/injection, schedule: Q04DX003 (ip), vehicle: saline): 115 and 139 % of control | T/C (dose: 150.0 mg/kg/injection, schedule: Q01DX Z (ip), vehicle: saline): 107, 112, 148 % of control | T/C (dose: 177.0 mg/kg/injection, schedule: Q01DX001 (ip), vehicle: saline): 119 % of control | T/C (dose: 200.0 mg/kg/injection, schedule: Q01DX001 (ip), vehicle: saline): 129 % of control | T/C (dose: 200.0 mg/kg/injection, schedule: Q04DX003 (ip), vehicle: saline): 104, 137, 146 % of control | T/C (dose: 266.0 mg/kg/injection, schedule: Q01DX001 (ip), vehicle: saline): 125 % of control | T/C (dose: 300.0 mg/kg/injection, schedule: Q04DX003 (ip), vehicle: saline): 139 and 168 % of control | T/C (dose: 400.0 mg/kg/injection, schedule: Q01DX001 (ip), vehicle: saline): 141 and 145 % of control | T/C (dose: 400.0 mg/kg/injection, schedule: Q04DX003 (ip), vehicle: saline): 138 % of control

O=C(COc1ccc(Cl)cc1)OC1CN2CCC1CC2 (centres undefined)
survivor count (dose: 25.6 mg/kg/injection, schedule: Q04DX002 (ip), vehicle: saline with Tween-80): 3 of 3 | T/C (dose: 64.0 mg/kg/injection, schedule: Q04DX002 (ip), vehicle: saline with Tween-80): 105 % of control | T/C (dose: 160.0 mg/kg/injection, schedule: Q04DX002 (ip), vehicle: saline with Tween-80): 98 % of control | survivor count (dose: 400.0 mg/kg/injection, schedule: Q04DX002 (ip), vehicle: saline with Tween-80): 3 of 3

NC(=O)Nc1ccc([As](=O)(O)O)cc1
T/C [4]: 92 % of control [5 of 6 alive] | T/C (dose: 200.0 mg/kg/injection, schedule: Q01DX009 (ip), vehicle: Klucel (hydroxypropylcellulose) (HPC)): 98 % of control | T/C (dose: 400.0 mg/kg/injection, schedule: Q01DX009 (ip), vehicle: Klucel (hydroxypropylcellulose) (HPC)): 92 % of control

CCN(CC)CCOC(=O)C(O)(c1ccccc1)c1cc(C)ccc1C (centres undefined)
T/C (dose: 75.0 mg/kg/injection, schedule: Q01DX001 (ip), vehicle: steroid suspending solution): 104 % of control

CC[P+]1(c2ccccc2)CCC(C)c2ccccc21.F[P-](F)(F)(F)(F)F (centres undefined)
survivor count [1]: 0 of 3 | survivor count [2]: 0 of 3 | survivor count [3]: 0 of 3
